Values quoted from earlier work in patent publication US20190115105A1, “TANDEM DUPLICATOR PHENOTYPE (TDP) AS A DISTINCT GENOMIC CONFIGURATION IN CANCER AND USE THEREOF” (The Jackson Laboratory, priority 2016, published 2019).
At least one structure is not confirmed: it was looked up by name or label, or the drawing left a doubt.

What was measured:
HCC1395 = settings: HCC1395, TNBC, TDP, TDP Score 0.118; GDSC data base; cited from earlier work
HCC1187 = settings: HCC1187, TNBC, TDP, TDP Score 0.152; GDSC data base; cited from earlier work
HCC2218 = settings: HCC2218, ERBB2+, non-TDP, TDP Score −0.849; GDSC data base; cited from earlier work
MCF-7 = settings: MCF-7, ER/PR+, TDP, TDP Score 0.385; GDSC data base; cited from earlier work
HCC1143 = settings: HCC1143, TNBC, non-TDP, TDP Score −0.424; GDSC data base; cited from earlier work
HCC2157 = settings: HCC2157, TNBC, TDP, TDP Score 0.076; GDSC data base; cited from earlier work
T47D = settings: ER/PR+, non-TDP, TDP Score −0.269, GDSC data base; cited from earlier work
HCC1954 = settings: HCC1954, ERBB2+, non-TDP, TDP Score −0.434; GDSC data base; cited from earlier work
MB231 = settings: MB231, TNBC, non-TDP, TDP Score −0.306; GDSC data base; cited from earlier work
HCC38 = settings: HCC38, TNBC, TDP, TDP Score 0.367; GDSC data base; cited from earlier work
HCC1937 = settings: HCC1937, TNBC, non-TDP, TDP Score −0.17; GDSC data base; cited from earlier work
HCC1599 = settings: HCC1599, TNBC, non-TDP, TDP Score −0.447; GDSC data base; cited from earlier work

Cn1cncc1[C@@](N)(c1ccc(Cl)cc1)c1ccc2c(c1)c(-c1cccc(Cl)c1)cc(=O)n2C [Tipifarnib]
IC50 Ln (μM) (HCC1395): 2.7 Ln (μM) | IC50 Ln (μM) (HCC1187): 2.03 Ln (μM) | IC50 Ln (μM) (HCC2218): 4.32 Ln (μM) | IC50 Ln (μM) (MCF-7): −1.79 Ln (μM) | IC50 Ln (μM) (HCC1143): 2.59 Ln (μM) | IC50 Ln (μM) (HCC2157): −1.13 Ln (μM) | IC50 Ln (μM) (T47D): 3.85 Ln (μM) | IC50 Ln (μM) (HCC1954): 2.66 Ln (μM) | IC50 Ln (μM) (MB231): 1.76 Ln (μM) | IC50 Ln (μM) (HCC38): 1.81 Ln (μM) | IC50 Ln (μM) (HCC1937): 2.2 Ln (μM) | IC50 Ln (μM) (HCC1599): 5.23 Ln (μM)
